Binding data for one molecule are collected here from publication doi:10.1101/777771.

The target in this assay is T1, JUNB (human (endogenous in A375)), P17275.
T1 chain: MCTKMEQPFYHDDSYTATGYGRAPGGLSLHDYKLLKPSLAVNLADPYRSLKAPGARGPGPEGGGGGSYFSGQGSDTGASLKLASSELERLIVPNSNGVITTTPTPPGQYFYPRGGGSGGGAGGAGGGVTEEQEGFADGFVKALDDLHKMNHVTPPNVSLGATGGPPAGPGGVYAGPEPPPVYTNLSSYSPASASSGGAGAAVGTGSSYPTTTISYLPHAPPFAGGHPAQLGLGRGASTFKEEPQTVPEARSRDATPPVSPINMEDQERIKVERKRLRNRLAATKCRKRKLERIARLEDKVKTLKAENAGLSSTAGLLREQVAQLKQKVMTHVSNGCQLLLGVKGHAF
The assay can be described thus: co-IP. The conditions noted are these: remark: other sources report otherwise.

Results are given in words; binding and its absence hold for the method and conditions named. Binding seen in cells or lysates may run through a third protein. Some entries that bind do so weakly or less than the wild type.

B1: FOSL1, P15407 1-271 (protein)
chain: MFRDFGEPGPSSGNGGGYGGPAQPPAAAQAAQQKFHLVPSINTMSGSQELQWMVQPHFLGPSSYPRPLTYPQYSPPQPRPGVIRALGPPPGVRRRPCEQISPEEEERRRVRRERNKLAAAKCRNRRKELTDFLQAETDKLEDEKSGLQREIEELQKQKERLELVLEAHRPICKIPEGAKEGDTGSTSGTSSPPAPCRPVPCISLSPGPVLEPEALHTPTLMTTPSLTPFTPSLVFTYPSTPEPCASAHRKSSSSSGDPSSDPLGSPTLLAL
With B1, the binding result was “binds”.
